Experimental data reported in PMC5514938.
These are yes or no findings as the source states them, for the method shown. In cells and extracts the contact can be indirect. Some results given as binding are weak or reduced against the parent protein; the word gives no strength.

Amino acid sequences for entries named in this document (tags omitted).
UniProt Q8R4B8: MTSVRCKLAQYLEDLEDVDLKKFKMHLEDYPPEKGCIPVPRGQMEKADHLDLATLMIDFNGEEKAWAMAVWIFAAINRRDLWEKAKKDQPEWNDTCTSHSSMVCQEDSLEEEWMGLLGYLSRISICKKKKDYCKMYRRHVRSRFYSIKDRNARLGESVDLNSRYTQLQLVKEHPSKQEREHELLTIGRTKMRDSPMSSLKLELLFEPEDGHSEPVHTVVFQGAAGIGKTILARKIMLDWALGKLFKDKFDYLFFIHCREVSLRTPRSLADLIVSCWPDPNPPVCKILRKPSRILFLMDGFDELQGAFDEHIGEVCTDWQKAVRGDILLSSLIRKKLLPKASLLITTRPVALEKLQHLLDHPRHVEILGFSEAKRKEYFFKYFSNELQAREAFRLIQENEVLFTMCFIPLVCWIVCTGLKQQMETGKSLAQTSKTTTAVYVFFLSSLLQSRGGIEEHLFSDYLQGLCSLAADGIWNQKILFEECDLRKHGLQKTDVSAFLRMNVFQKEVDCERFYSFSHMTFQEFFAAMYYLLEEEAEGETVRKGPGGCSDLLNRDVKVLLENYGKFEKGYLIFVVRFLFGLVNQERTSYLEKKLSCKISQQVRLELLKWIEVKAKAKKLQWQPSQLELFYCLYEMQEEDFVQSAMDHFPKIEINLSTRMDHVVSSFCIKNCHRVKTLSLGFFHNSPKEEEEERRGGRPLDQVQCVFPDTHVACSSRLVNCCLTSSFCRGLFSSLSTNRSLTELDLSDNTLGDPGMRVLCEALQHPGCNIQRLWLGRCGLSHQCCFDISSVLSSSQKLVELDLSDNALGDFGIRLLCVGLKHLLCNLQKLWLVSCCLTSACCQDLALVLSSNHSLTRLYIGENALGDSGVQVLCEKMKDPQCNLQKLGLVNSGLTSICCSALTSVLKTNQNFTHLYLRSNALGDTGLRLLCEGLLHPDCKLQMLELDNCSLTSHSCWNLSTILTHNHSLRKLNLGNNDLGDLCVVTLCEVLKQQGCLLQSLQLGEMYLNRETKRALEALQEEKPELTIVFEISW

Tests used:
[1] = target: NACHT, LRR, and PYD domains-containing protein 3 (mouse (endogenous in Kupffer cells)) (UniProt Q8R4B8); experiment: co-IP; 500 ug of Kupffer cell lysate (IP lysis buffer) with 5 ug anti-NLRP3 antibody at 4°C overnight, Protein A magnetic beads, western blot; KCs from WT mice on MCD diet (NASH), from TXNIP-/- mice on HFD or MCD diet, and cultured WT KCs with or without palmitic acid (0.32 mM, 12 h)
[2] = target: NACHT, LRR, and PYD domains-containing protein 3 (mouse (endogenous in Kupffer cells)) (UniProt Q8R4B8); experiment: co-IP; as a1 (anti-NLRP3 antibody, Protein A magnetic beads, western blot), but KCs from WT mice on normal diet (normal group) or high-fat diet (NAFL group)

binding [1] | binding [2] | Binder
binds | binds weakly | Thioredoxin-interacting protein (protein, UniProt Q8BG60 1-397) MVMFKKIKSFEVVFNDPEKVYGSGEKVAGRVIVEVCEVTRVKAVRILACGVAKVLWMQGSQQCKQTLDYLRYEDTLLLEEQPTAGENEMVIMRPGNKYEYKFGFELPQGPLGTSFKGKYGCVDYWVKAFLDRPSQPTQEAKKNFEVMDLVDVNTPDLMAPVSAKKEKKVSCMFIPDGRVSVSARIDRKGFCEGDDISIHADFENTCSRIVVPKAAIVARHTYLANGQTKVFTQKLSSVRGNHIISGTCASWRGKSLRVQKIRPSILGCNILKVEYSLLIYVSVPGSKKVILDLPLVIGSRSGLSSRTSSMASRTSSEMSWIDLNIPDTPEAPPCYMDIIPEDHRLESPTTPLLDDVDDSQDSPIFMYAPEFQFMPPPTYTEVDPCVLNNNNNNNNVQ
binds | binds weakly | Caspase-1 (enzyme, UniProt P29452 1-402) MADKILRAKRKQFINSVSIGTINGLLDELLEKRVLNQEEMDKIKLANITAMDKARDLCDHVSKKGPQASQIFITYICNEDCYLAGILELQSAPSAETFVATEDSKGGHPSSSETKEEQNKEDGTFPGLTGTLKFCPLEKAQKLWKENPSEIYPIMNTTTRTRLALIICNTEFQHLSPRVGAQVDLREMKLLLEDLGYTVKVKENLTALEMVKEVKEFAACPEHKTSDSTFLVFMSHGIQEGICGTTYSNEVSDILKVDTIFQMMNTLKCPSLKDKPKVIIIQACRGEKQGVVLLKDSVRDSEEDFLTDAIFEDDGIKKAHIEKDFIAFCSSTPDNVSWRHPVRGSLFIESLIKHMKEYAWSCDLEDIFRKVRFSFEQPEFRLQMPTADRVTLTKRFYLFPGH
